Values joined by “and” are separate entries in the source; they are usually repeats but may differ in a detail not shown here. Identical values can stand only once. Further values from the same series stand in other lists.
Test: Phase 1 Stage 1 clinical pharmacokinetics of SC ZA co-administered with rHuPH20
Assay type: in vivo, human
Conditions: serum, individual subjects, listed as Zoledronic Acid
Experimental: A pharmacokinetic study of zoledronic acid (ZA) co-administered with rHuPH20 in human subjects was conducted. The primary objective of the study was to determine the bioavailability of zoledronic acid dosed via subcutaneous (SC) co-administration with human recombinant hyaluronidase PH20 (rHuPH20). […] The patients were administered the prescribed dosage formulations as follows: Cohorts 1-5 were administered a single subcutaneous infusion in a dosage volume of 100 ml at a rate of 3 mL/min. […] The dosing solution is administered via needle or catheter into the SC space of the left anterior thigh (midway between the anterior iliac crest and the cephalad border of the patella). For cohorts 1-5, the dosing solutions were administered by a controlled rate infusion pump at approximately 3 mL/minute. […] The dosing solutions were administered by syringe push bolus injection. […] Serum concentration of ZA was determined using a qualified LC-MS-MS assay after derivatization with diazomethane (Zhu, L S et al. (2006) Rapid Commun. […] The assay range was from 2.0 to 400 ng/mL with a lower limit of quantitation (LLOQ) at 2.0 ng/mL. […] Non-compartmental analysis was used for derivation of primary and secondary pharmacokinetic (PK) parameters. […] Summary statistics (mean, standard deviation, and median) were calculated using JMP or Microsoft Excel.

For `O=P(O)(O)C(O)(Cn1ccnc1)P(=O)(O)O` [ZA, 1-hydroxy-2-(1H-imidazol-1-yl)ethylidene-1,1-bisphosphonic acid], the “Zoledronic Acid Concentration” value (ZA 0.25 mg SC infusion + 24000 Units rHuPH20, 0 h post infusion) was 5.04 ng/mL, the “Zoledronic Acid Concentration” value (ZA 0.5 mg SC infusion + 24000 Units rHuPH20, 0 h post infusion) was 11.10 ng/mL and the “Zoledronic Acid Concentration” value (ZA 0.5 mg SC infusion + 24000 Units rHuPH20, 10 min post infusion) was 13.30 ng/mL. The “Zoledronic Acid Concentration” value (ZA 0.5 mg SC infusion + 24000 Units rHuPH20, 0.5 h post infusion) was 13.00 ng/mL, the “Zoledronic Acid Concentration” value (ZA 0.5 mg SC infusion + 24000 Units rHuPH20, 1 h post infusion) was 13.70 ng/mL and the “Zoledronic Acid Concentration” value (ZA 0.5 mg SC infusion + 24000 Units rHuPH20, 2 h post infusion) was 10.60 ng/mL and 11.50 ng/mL. For the same compound, the “Zoledronic Acid Concentration” value (ZA 0.5 mg SC infusion + 24000 Units rHuPH20, 4 h post infusion) was 6.02 ng/mL and 5.87 ng/mL, the “Zoledronic Acid Concentration” value (ZA 0.5 mg SC infusion + 24000 Units rHuPH20, 6 h post infusion) was 3.04 ng/mL and 2.53 ng/mL and the “Zoledronic Acid Concentration” value (ZA 0.5 mg SC infusion + 24000 Units rHuPH20, 8 h post infusion) was 1.34 ng/mL and 1.42 ng/mL. The “Zoledronic Acid Concentration” value (ZA 0.5 mg SC infusion + 24000 Units rHuPH20, 12 h post infusion) was 0.55 ng/mL and 0.56 ng/mL, the “Zoledronic Acid Concentration” value (ZA 1 mg SC infusion + 24000 Units rHuPH20, 0 h post infusion) was 17.90 ng/mL and the “Zoledronic Acid Concentration” value (ZA 1 mg SC infusion + 24000 Units rHuPH20, 10 min post infusion) was 24.50 ng/mL. The “Zoledronic Acid Concentration” value (ZA 1 mg SC infusion + 24000 Units rHuPH20, 0.5 h post infusion) was 28.00 ng/mL, the “Zoledronic Acid Concentration” value (ZA 1 mg SC infusion + 24000 Units rHuPH20, 1 h post infusion) was 27.20 ng/mL and the “Zoledronic Acid Concentration” value (ZA 1 mg SC infusion + 24000 Units rHuPH20, 2 h post infusion) was 17.70 ng/mL. For the same compound, the “Zoledronic Acid Concentration” value (ZA 1 mg SC infusion + 24000 Units rHuPH20, 4 h post infusion) was 7.51 ng/mL, the “Zoledronic Acid Concentration” value (ZA 1 mg SC infusion + 24000 Units rHuPH20, 6 h post infusion) was 3.76 ng/mL and the “Zoledronic Acid Concentration” value (ZA 1 mg SC infusion + 24000 Units rHuPH20, 8 h post infusion) was 2.46 ng/mL. For the same compound, the “Zoledronic Acid Concentration” value (ZA 1 mg SC infusion + 24000 Units rHuPH20, 12 h post infusion) was 0.96 ng/mL and the “Zoledronic Acid Concentration” value (ZA 1 mg SC infusion + 24000 Units rHuPH20, 24 h post infusion) was 0.50 ng/mL.
